According to the RNAGym collection of RNA variant scans (doi:10.1126/science.aae0568):
Variants at the background level are over-represented here.

B1: tRNA (parent)
chain: GUUCCGUUGGCGUAAUGGUAACGCGUCUCCCUCCUAAGGAGAAGACUGCGGGUUCGAGUCCCGUACGGAACG

Variants of: B1
Assay: yeast fitness relative to wild type (ratio to wild type); higher = fitter; tRNA-Arg(CCU), competitive growth, 37 C, YPD
How it was run: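 A pool of Saccharomyces cerevisiae strains, each with a tRNA-Arg(CCU) gene variant at the native genomic locus, was competed in YPD at 37°C for 24 hours across six parallel replicates. The variants had been chemically synthesised at a 3% per-site mutation rate over 69 sites, and gene amplicons before and after competition were read by 100-nucleotide paired-end sequencing. Darwinian fitness relative to wild type rested on changes in genotype frequencies. Genotypes required ≥ 100 starting reads, and estimates < 0.5 were set to 0.5.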

Row | Variant | yeast fitness
1 | C31U U53G C61G C66G | ≤ 0.5
2 | C31U U64G A65U | ≤ 0.5
3 | U32A A37G C46A U53A | ≤ 0.5
4 | U32A A57U G68U | ≤ 0.5
5 | U32A C46A C62A | ≤ 0.5
6 | U32A C49A G68A | ≤ 0.5
7 | U32A G52C C55U C66U | ≤ 0.5
8 | U32C A37U U54A | ≤ 0.5
9 | U32C A40U C55A G56C | ≤ 0.5
10 | U32C C33G U47A | ≤ 0.5
11 | U32C C55A C62U | ≤ 0.5
12 | U32C U35A U47C | ≤ 0.5
13 | U32G A37C C62U A65G | ≤ 0.5
14 | U32G C34A G38A A70G | ≤ 0.5
15 | C33A C62A A69G | ≤ 0.5
16 | C33A G50U C61A | ≤ 0.5
17 | C33G A40U C46G C49G C55U | ≤ 0.5
18 | C33G A43G C46A C55G U59C | ≤ 0.5
19 | C33G A45C U53C C62U | ≤ 0.5
20 | C33G A45C U54C | ≤ 0.5
21 | C33G A57G C61G G63A A65G C66U | ≤ 0.5
22 | C33G C34U U54A C66U | ≤ 0.5
23 | C33G C49A A69U | ≤ 0.5
24 | C33G C49G U53G C55U | ≤ 0.5
25 | C33G C62A G68C | ≤ 0.5

Row | Variant | yeast fitness
26 | C33U A37U C46U | ≤ 0.5
27 | C33U A65U C66U | ≤ 0.5
28 | C33U G39C | 0.622
29 | C33U G41C G58C | ≤ 0.5
30 | C33U G56A C61G C66U | ≤ 0.5
31 | C33U G58A C66A | ≤ 0.5
32 | C34A A43C C62A | ≤ 0.5
33 | C34A A43G A69C | ≤ 0.5
34 | C34A C49A C60G C62A A65G | ≤ 0.5
35 | C34A G44A C46U A65C | ≤ 0.5
36 | C34A G44C C61G G68A | ≤ 0.5
37 | C34A U47G C49G C60G | 0.571
38 | C34G A37C A42G G44C G58A C60A | ≤ 0.5
39 | C34G A37C C62U C66A | ≤ 0.5
40 | C34G C55U G63A | ≤ 0.5
41 | C34G C66A A69U | ≤ 0.5
42 | C34G G58A G63C | ≤ 0.5
43 | C34G G67A A70C | ≤ 0.5
44 | C34G U54A U59C A65G A70G | 0.84
45 | C34U A37G C46U C61A | 0.589
46 | C34U A45U | 0.686
47 | C34U A65U | 0.574
48 | C34U A69U | 0.667
49 | C34U U35G | ≤ 0.5
50 | C34U U35G G38A G51C A69U | ≤ 0.5

Row | Variant | yeast fitness
51 | C34U U64A G67C A69U | ≤ 0.5
52 | U35A C49G C60A | ≤ 0.5
53 | U35C G41A G44A A57U C66G | ≤ 0.5
54 | U35G C46A A69C | ≤ 0.5
55 | U35G U47A G48A A65U | ≤ 0.5
56 | A36C A65U G68U | ≤ 0.5
57 | A36C C46G | 0.543
58 | A36C C49U G52A C62A A70U | ≤ 0.5
59 | A36C C61A G63C | ≤ 0.5
60 | A36C U47A G48C A57C A65U | ≤ 0.5
61 | A36G A42U A57U U64C | ≤ 0.5
62 | A36G C46G U54G | ≤ 0.5
63 | A36G C49G A70G | 0.53
64 | A36G G68C A70G | ≤ 0.5
65 | A36U G39A | 0.657
66 | A36U G48C C49G | ≤ 0.5
67 | A36U G48C C66U | ≤ 0.5
68 | A36U G50C A69C | ≤ 0.5
69 | A36U G63A | 0.672
70 | A36U G68C | 0.698
71 | A37C A40C A57C | ≤ 0.5
72 | A37C A43C C66A | ≤ 0.5
73 | A37C A43U G52A C62A C66A | ≤ 0.5
74 | A37C C55A C62U | ≤ 0.5
75 | A37G A42U | 0.787

Row | Variant | yeast fitness
76 | A37G A42U A43C C46U A70G | ≤ 0.5
77 | A37G A43G | 0.734
78 | A37G C46U U59G C66U | ≤ 0.5
79 | A37G C55U C60G | ≤ 0.5
80 | A37G U54A C61U | ≤ 0.5
81 | A37U A40C A42G C66U | ≤ 0.5
82 | A37U A40C C62U A65U | ≤ 0.5
83 | A37U A40C G51A | 0.687
84 | A37U A45U | 0.64
85 | A37U C61A G67A | ≤ 0.5
86 | A37U C66U A69U | ≤ 0.5
87 | A37U G38A | 0.631
88 | A37U U47A G52U | ≤ 0.5
89 | G38A C55G C61U | ≤ 0.5
90 | G38A G48A C49G G58A | ≤ 0.5
91 | G38C A45C G52C C61U | ≤ 0.5
92 | G38C A45U U54A C61U A65G | ≤ 0.5
93 | G38C C46A C66G | ≤ 0.5
94 | G38C C55G U59G | ≤ 0.5
95 | G38C C62A G67C | ≤ 0.5
96 | G38C G41C C61U | ≤ 0.5
97 | G38C U47C U59C | ≤ 0.5
98 | G38C U54A C62U | ≤ 0.5
99 | G38U C46A | 0.783
100 | G38U G50A G67C | ≤ 0.5

Row | Variant | yeast fitness
101 | G39A G52C | 0.612
102 | G39C G48C C61U | ≤ 0.5
103 | A40C G48C U59C | ≤ 0.5
104 | A40C G50A C55A G58A | ≤ 0.5
105 | A40C G52C C66U G67A | ≤ 0.5
106 | A40G G56A | 0.998
107 | A40G U47C U53C C55A A57G | ≤ 0.5
108 | A40U A43U C60U C62U C66U | ≤ 0.5
109 | A40U A57G U59C U64G | ≤ 0.5
110 | A40U C55A | 0.584
111 | G41A A42C | 0.726
112 | G41C C49A G67A | ≤ 0.5
113 | G41C G48C A69C | 0.606
114 | A42C C55G | 0.612
115 | A42C C60A G63C | ≤ 0.5
116 | A42C G48C G67A | 0.574
117 | A42C G50C G68U | ≤ 0.5
118 | A42C G51A | 0.849
119 | A42C G51A A70C | 0.578
120 | A42C U47C G58C | 0.644
121 | A42C U47C G63A | 0.692
122 | A42C U53A G56C | ≤ 0.5
123 | A42G A57U G67C | ≤ 0.5
124 | A42G C55U | 0.688
125 | A42G C62G A70C | ≤ 0.5

Row | Variant | yeast fitness
126 | A42G G51A C60A | ≤ 0.5
127 | A42G G56U C61G | ≤ 0.5
128 | A42G G67U | 0.633
129 | A42G U47A C55G | ≤ 0.5
130 | A42U C46A C49A C62U | ≤ 0.5
131 | A42U C49U C55U A69C | ≤ 0.5
132 | A42U U53C | 0.732
133 | A43C C49G A57G | 0.591
134 | A43C G51C U59A | ≤ 0.5
135 | A43C G67A | 0.685
136 | A43G A57G G67A A70U | ≤ 0.5
137 | A43G A70U | 1.01
138 | A43G C49U | 0.9
139 | A43U A65U C66A | ≤ 0.5
140 | A43U C46G U54A | 0.538
141 | G44A A65U | 0.816
142 | G44A G63A | 0.97
143 | G44C A65C C66U | ≤ 0.5
144 | G44C C55A C66A | ≤ 0.5
145 | G44C C61A | 0.583
146 | A45C G48C G50A U53C | ≤ 0.5
147 | A45G A57U | 0.751
148 | A45G C60G | 0.821
149 | A45G G58C C62A C66G | ≤ 0.5
150 | A45U C46A G63A | 1.06

Row | Variant | yeast fitness
151 | A45U U54C A57U C62U | ≤ 0.5
152 | C46A A57G G68A | 0.605
153 | C46U C49U U53C A65U | ≤ 0.5
154 | U47A G51A C55U | 0.642
155 | U47C G56C U64C G68C | ≤ 0.5
156 | U47C G68U | 1.1
157 | U47C U59G | 0.936
158 | U47G G67A A69U | ≤ 0.5
159 | U47G U59A C66A | ≤ 0.5
160 | G48A C55A G56U G58C | ≤ 0.5
161 | G48A C60G G63C U64C C66G | ≤ 0.5
162 | G48A C61U A65C | ≤ 0.5
163 | G48A U54G | 0.686
164 | C49A A57C A69U | 0.528
165 | C49A C60G | 0.638
166 | C49G G50A G68C A69G | ≤ 0.5
167 | C49G G63C G68C | ≤ 0.5
168 | C49U A70C | 1.02
169 | C49U G51A G63A | ≤ 0.5
170 | G50A G51A G52A | ≤ 0.5
171 | G50A G52C C66U A70C | ≤ 0.5
172 | G51A A57U A65U A70U | ≤ 0.5
173 | G51A C60U C61U A65G A69C | 0.594
174 | G51A G52C C66A | ≤ 0.5
175 | G51C G56C C61A | ≤ 0.5

Row | Variant | yeast fitness
176 | G52A C62A | ≤ 0.5
177 | U53A C62A C66U | ≤ 0.5
178 | U53A C62G | 0.598
179 | U54A C55G | ≤ 0.5
180 | U54A C61G A65U | ≤ 0.5
181 | U54A C62U A70U | ≤ 0.5
182 | U54A G68C | ≤ 0.5
183 | U54A U64A C66G | ≤ 0.5
184 | C55A G67A | 0.658
185 | C55G A65G C66G A70U | ≤ 0.5
186 | C55G G67A | 0.729
187 | G56C C60A | 0.587
188 | A57C A65G | 0.573
189 | A57C C60U A65G | ≤ 0.5
190 | A57C C60U G67C | ≤ 0.5
191 | A57C U64C | 0.564
192 | G58C C66G G68A | ≤ 0.5
193 | C60A G67C A69U | ≤ 0.5
194 | C60U A70G | 0.786
195 | C60U C61A G67A A69C | ≤ 0.5
196 | C60U G67A | 0.721
197 | C66U G68C | 0.779
